# Data as given in the supplement of paper PMC10077471.
# Whole data set: some 1,900 compounds, median “excess over highest single agent (ExcessHSA) synergy score, 6x6 matrix” near -83, cut for the lowest 2% near -370. The list shows a part of the results.
# System: NCI-H446
# Assay: excess over highest single agent (ExcessHSA) synergy score, 6x6 matrix; higher = less synergy (more negative = stronger synergy)
# Settings: 72 h; CellTiter-Glo viability
row,Structure (SMILES),excess over highest single agent
1,Cc1c(Cn2c(C)nc3c(C(=O)O)cc(N4CCOCC4)cc32)cccc1C(F)(F)F + Cc1sc2c(c1C)C(c1ccc(Cl)cc1)=N[C@@H](CC(=O)OC(C)(C)C)c1nnc(C)n1-2 [NCGC00250412-19],-233
2,S=c1nc[nH]c2nc[nH]c12 + Cc1sc2c(c1C)C(c1ccc(Cl)cc1)=N[C@@H](CC(=O)OC(C)(C)C)c1nnc(C)n1-2 [NCGC00250412-19],15.6
3,CC(C)(O)c1cc2nc(-c3cnc(N)nc3)nc(N3CCOCC3)c2s1 + Cc1sc2c(c1C)C(c1ccc(Cl)cc1)=N[C@@H](CC(=O)OC(C)(C)C)c1nnc(C)n1-2 [NCGC00250412-19],-253
4,NCc1c[nH]c(=S)n1[C@H]1CCc2c(F)cc(F)cc2C1 + Cc1sc2c(c1C)C(c1ccc(Cl)cc1)=N[C@@H](CC(=O)OC(C)(C)C)c1nnc(C)n1-2 [NCGC00250412-19],-24.9
5,OCc1ccc(-c2nn(Cc3ccccc3)c3ccccc23)o1 + Cc1sc2c(c1C)C(c1ccc(Cl)cc1)=N[C@@H](CC(=O)OC(C)(C)C)c1nnc(C)n1-2 [NCGC00250412-19],-215
6,NC(=O)c1cccnc1 + Cc1sc2c(c1C)C(c1ccc(Cl)cc1)=N[C@@H](CC(=O)OC(C)(C)C)c1nnc(C)n1-2 [NCGC00250412-19],-63.3
7,Cn1c(=O)c2c(ncn2CC(O)CO)n(C)c1=O (stereo unspecified) + Cc1sc2c(c1C)C(c1ccc(Cl)cc1)=N[C@@H](CC(=O)OC(C)(C)C)c1nnc(C)n1-2 [NCGC00250412-19],-73.2
8,C[C@@H]1CC[C@@]2(OC1)O[C@H]1C[C@H]3[C@@H]4CC=C5C[C@@H](O[C@@H]6O[C@H](CO)[C@@H](O[C@@H]7O[C@@H](C)[C@H](O)[C@@H](O)[C@H]7O)[C@H](O)[C@H]6O[C@@H]6O[C@@H](C)[C@H](O)[C@@H](O)[C@H]6O)CC[C@]5(C)[C@H]4CC[C@]3(C)[C@H]1[C@@H]2C + Cc1sc2c(c1C)C(c1ccc(Cl)cc1)=N[C@@H](CC(=O)OC(C)(C)C)c1nnc(C)n1-2 [NCGC00250412-19],-88.7
9,Cc1ccc(C(=O)Nc2cccc(C(F)(F)F)c2)cc1Nc1nc(-c2cccnc2)nc2c1cnn2C + Cc1sc2c(c1C)C(c1ccc(Cl)cc1)=N[C@@H](CC(=O)OC(C)(C)C)c1nnc(C)n1-2 [NCGC00250412-19],-0.966
10,Cc1noc(-c2ccc(CSCCC(=O)O)cc2)c1NC(=O)OC(C)c1ccccc1Cl (stereo unspecified) + Cc1sc2c(c1C)C(c1ccc(Cl)cc1)=N[C@@H](CC(=O)OC(C)(C)C)c1nnc(C)n1-2 [NCGC00250412-19],-62
11,CCOC(=O)N1c2ccc(C(F)(F)F)cc2[C@@H](N(Cc2cc(C(F)(F)F)cc(C(F)(F)F)c2)C(=O)OC)C[C@H]1CC + Cc1sc2c(c1C)C(c1ccc(Cl)cc1)=N[C@@H](CC(=O)OC(C)(C)C)c1nnc(C)n1-2 [NCGC00250412-19],-232
12,CO[C@H]1C[C@@H]2CC[C@@H](C)[C@@](O)(O2)C(=O)C(=O)N2CCCC[C@H]2C(=O)O[C@H]([C@H](C)C[C@@H]2CC[C@@H](OC(=O)C(C)(CO)CO)[C@H](OC)C2)CC(=O)[C@H](C)/C=C(\C)[C@@H](O)[C@@H](OC)C(=O)[C@H](C)C[C@H](C)/C=C/C=C/C=C/1C + Cc1sc2c(c1C)C(c1ccc(Cl)cc1)=N[C@@H](CC(=O)OC(C)(C)C)c1nnc(C)n1-2 [NCGC00250412-19],-419
13,CN1CCCN=C1/C=C/c1cccs1 + Cc1sc2c(c1C)C(c1ccc(Cl)cc1)=N[C@@H](CC(=O)OC(C)(C)C)c1nnc(C)n1-2 [NCGC00250412-19],-4.75
14,CCC[C@@H]1C[C@@H](C(=O)N[C@@H]([C@H]2O[C@H](SC)[C@H](O)[C@@H](O)[C@H]2O)[C@@H](C)O)N(C)C1 + Cc1sc2c(c1C)C(c1ccc(Cl)cc1)=N[C@@H](CC(=O)OC(C)(C)C)c1nnc(C)n1-2 [NCGC00250412-19],70
15,CC12CC3CC(C)(C1)CC(N)(C3)C2 + Cc1sc2c(c1C)C(c1ccc(Cl)cc1)=N[C@@H](CC(=O)OC(C)(C)C)c1nnc(C)n1-2 [NCGC00250412-19],-0.949
16,CN1C(C(=O)Nc2ccccn2)=C(O)c2sc(Cl)cc2S1(=O)=O + Cc1sc2c(c1C)C(c1ccc(Cl)cc1)=N[C@@H](CC(=O)OC(C)(C)C)c1nnc(C)n1-2 [NCGC00250412-19],395
17,Cn1cc(C2=C(c3cn(C4CCN(Cc5ccccn5)CC4)c4ccccc34)C(=O)NC2=O)c2ccccc21 + Cc1sc2c(c1C)C(c1ccc(Cl)cc1)=N[C@@H](CC(=O)OC(C)(C)C)c1nnc(C)n1-2 [NCGC00250412-19],-58.1
18,O=C(C=Cc1ccc(C=CC(=O)Nc2ccc(C3=NCCN3)cc2)cc1)Nc1ccc(C2=NCCN2)cc1 + Cc1sc2c(c1C)C(c1ccc(Cl)cc1)=N[C@@H](CC(=O)OC(C)(C)C)c1nnc(C)n1-2 [NCGC00250412-19],-46.7

# A run of entries taken from the entries so far:
row,Structure (SMILES),excess over highest single agent
16,CN1C(C(=O)Nc2ccccn2)=C(O)c2sc(Cl)cc2S1(=O)=O + Cc1sc2c(c1C)C(c1ccc(Cl)cc1)=N[C@@H](CC(=O)OC(C)(C)C)c1nnc(C)n1-2 [NCGC00250412-19],395
17,Cn1cc(C2=C(c3cn(C4CCN(Cc5ccccn5)CC4)c4ccccc34)C(=O)NC2=O)c2ccccc21 + Cc1sc2c(c1C)C(c1ccc(Cl)cc1)=N[C@@H](CC(=O)OC(C)(C)C)c1nnc(C)n1-2 [NCGC00250412-19],-58.1

# Remaining list, next part

row,Structure (SMILES),excess over highest single agent
1,O=C(Nc1cccnc1)N1CCC(Cc2cccc(Oc3ccc(C(F)(F)F)cn3)c2)CC1 + Cc1sc2c(c1C)C(c1ccc(Cl)cc1)=N[C@@H](CC(=O)OC(C)(C)C)c1nnc(C)n1-2 [NCGC00250412-19],57.2
2,O=C(Nc1ccc([N+](=O)[O-])cc1Cl)c1cc(Cl)ccc1O + Cc1sc2c(c1C)C(c1ccc(Cl)cc1)=N[C@@H](CC(=O)OC(C)(C)C)c1nnc(C)n1-2 [NCGC00250412-19],-126
3,CCCCc1oc2ccccc2c1C(=O)c1cc(I)c(OCCN(CC)CC)c(I)c1 + Cc1sc2c(c1C)C(c1ccc(Cl)cc1)=N[C@@H](CC(=O)OC(C)(C)C)c1nnc(C)n1-2 [NCGC00250412-19],17.5
4,CC1(N2CCC(n3c([C@@H]4CCCNC4)nc4ccccc43)CC2)CCCCCCC1 + Cc1sc2c(c1C)C(c1ccc(Cl)cc1)=N[C@@H](CC(=O)OC(C)(C)C)c1nnc(C)n1-2 [NCGC00250412-19],-141
5,O=C(O)c1cccnc1 + Cc1sc2c(c1C)C(c1ccc(Cl)cc1)=N[C@@H](CC(=O)OC(C)(C)C)c1nnc(C)n1-2 [NCGC00250412-19],-46.3
6,C=CCNC1=C2C[C@@H](C)C[C@H](OC)[C@H](O)[C@@H](C)/C=C(\C)[C@H](OC(N)=O)[C@@H](OC)/C=C\C=C(/C)C(=O)NC(=CC1=O)C2=O + Cc1sc2c(c1C)C(c1ccc(Cl)cc1)=N[C@@H](CC(=O)OC(C)(C)C)c1nnc(C)n1-2 [NCGC00250412-19],-199
7,Cc1cccc(N(C)C(=S)Oc2ccc3ccccc3c2)c1 + Cc1sc2c(c1C)C(c1ccc(Cl)cc1)=N[C@@H](CC(=O)OC(C)(C)C)c1nnc(C)n1-2 [NCGC00250412-19],-107
8,O=c1[nH]c(=O)n([C@H]2C[C@H](O)[C@@H](CO)O2)cc1I + Cc1sc2c(c1C)C(c1ccc(Cl)cc1)=N[C@@H](CC(=O)OC(C)(C)C)c1nnc(C)n1-2 [NCGC00250412-19],-172
9,CN1CCN(c2ccc3nc(-c4c(N)c5c(F)cccc5[nH]c4=O)[nH]c3c2)CC1 + Cc1sc2c(c1C)C(c1ccc(Cl)cc1)=N[C@@H](CC(=O)OC(C)(C)C)c1nnc(C)n1-2 [NCGC00250412-19],-118
10,COc1ccc(-c2ccc3cc(C(=O)O)ccc3c2)cc1C12CC3CC(CC(C3)C1)C2 + Cc1sc2c(c1C)C(c1ccc(Cl)cc1)=N[C@@H](CC(=O)OC(C)(C)C)c1nnc(C)n1-2 [NCGC00250412-19],-59
11,NNC(=O)c1ccncc1 + Cc1sc2c(c1C)C(c1ccc(Cl)cc1)=N[C@@H](CC(=O)OC(C)(C)C)c1nnc(C)n1-2 [NCGC00250412-19],-86.7
12,CC(=O)N(C)C1(c2ccccc2)CCN(CCC[C@]2(c3ccc(Cl)c(Cl)c3)CCCN(C(=O)c3ccccc3)C2)CC1 + Cc1sc2c(c1C)C(c1ccc(Cl)cc1)=N[C@@H](CC(=O)OC(C)(C)C)c1nnc(C)n1-2 [NCGC00250412-19],-142
13,C[C@H]1C[C@H]2[C@@H]3CCC4=CC(=O)C=C[C@]4(C)[C@H]3C(=O)C[C@]2(C)[C@@]1(O)C(=O)CO + Cc1sc2c(c1C)C(c1ccc(Cl)cc1)=N[C@@H](CC(=O)OC(C)(C)C)c1nnc(C)n1-2 [NCGC00250412-19],-318
14,CCC(=O)OCC(=O)[C@@]1(OC(=O)CC)[C@@H](C)C[C@H]2[C@@H]3CCC4=CC(=O)C=C[C@]4(C)[C@@]3(F)[C@@H](O)C[C@@]21C + Cc1sc2c(c1C)C(c1ccc(Cl)cc1)=N[C@@H](CC(=O)OC(C)(C)C)c1nnc(C)n1-2 [NCGC00250412-19],-26.9
15,Cc1ccc(S(=O)(=O)OCC(=O)Nc2ccc(C(=O)O)c(O)c2)cc1 + Cc1sc2c(c1C)C(c1ccc(Cl)cc1)=N[C@@H](CC(=O)OC(C)(C)C)c1nnc(C)n1-2 [NCGC00250412-19],-180
16,O=C(Nc1ncc(SCCN2CCCC2)s1)[C@]1(c2ccc(S(=O)(=O)C3CC3)cc2)C[C@H]1C1CCCCC1 + Cc1sc2c(c1C)C(c1ccc(Cl)cc1)=N[C@@H](CC(=O)OC(C)(C)C)c1nnc(C)n1-2 [NCGC00250412-19],69.3
17,CC(=O)OCC(=O)[C@@]1(O)CC[C@H]2[C@@H]3CCC4=CC(=O)C=C[C@]4(C)[C@H]3[C@@H](O)C[C@@]21C + Cc1sc2c(c1C)C(c1ccc(Cl)cc1)=N[C@@H](CC(=O)OC(C)(C)C)c1nnc(C)n1-2 [NCGC00250412-19],-68.7
18,CS[C@H]1SC[C@H]2C(=O)N(C)[C@@H](C(C)C)C(=O)OC[C@@H](NC(=O)c3cnc4ccccc4n3)C(=O)N[C@@H](C)C(=O)N(C)[C@@H]1C(=O)N(C)[C@@H](C(C)C)C(=O)OC[C@@H](NC(=O)c1cnc3ccccc3n1)C(=O)N[C@@H](C)C(=O)N2C + Cc1sc2c(c1C)C(c1ccc(Cl)cc1)=N[C@@H](CC(=O)OC(C)(C)C)c1nnc(C)n1-2 [NCGC00250412-19],15.3
